Measured values from publication PMC3907333.

T1: GST-Bag101 (full length) (S. pombe) (UniProt O60125)
T1 sequence: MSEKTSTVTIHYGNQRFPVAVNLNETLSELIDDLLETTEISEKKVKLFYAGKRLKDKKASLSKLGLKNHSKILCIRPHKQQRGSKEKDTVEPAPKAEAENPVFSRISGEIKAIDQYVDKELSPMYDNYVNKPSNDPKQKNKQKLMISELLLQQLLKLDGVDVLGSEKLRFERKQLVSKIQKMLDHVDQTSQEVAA

T2: GST-Bag101 BAG domain (78-190) (S. pombe) (UniProt O60125)
T2 sequence: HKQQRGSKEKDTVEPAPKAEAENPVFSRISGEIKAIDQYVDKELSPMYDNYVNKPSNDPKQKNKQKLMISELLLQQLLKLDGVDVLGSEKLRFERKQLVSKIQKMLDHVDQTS

T3: GST-Bag102 BAG domain (122-206) (S. pombe) (UniProt O59739)
T3 sequence: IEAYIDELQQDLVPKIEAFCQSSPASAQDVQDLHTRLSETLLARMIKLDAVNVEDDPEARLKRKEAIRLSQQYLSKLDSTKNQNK

T4: GST-Bag102 ΔTM (31-206) (S. pombe) (UniProt O59739)
T4 sequence: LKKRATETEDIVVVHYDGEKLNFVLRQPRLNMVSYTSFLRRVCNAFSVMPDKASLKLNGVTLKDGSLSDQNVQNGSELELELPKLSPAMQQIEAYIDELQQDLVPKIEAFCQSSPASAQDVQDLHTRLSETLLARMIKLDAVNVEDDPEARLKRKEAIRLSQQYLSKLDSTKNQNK


Experiments:
[1] = molecular target: T1, GST-Bag101 (full length) (S. pombe); experiment: pull-down; GST fusion proteins on glutathione Sepharose 4 beads (1 mg/mL, 20 µL beads) in 1 mL cleared extract of S. pombe expressing Pad1/Rpn11 with a Protein A ZZ-tag; buffer A (25 mM Tris/HCl pH 7.5, 50 mM NaCl, 2 mM MgCl2, 5 mM ATP, 10% glycerol, 0.1% Triton X-100, 2 mM DTT); overnight at 4°C; blots for Hsp70, the ZZ-tag and 20S α subunits; only the target purified
[2] = molecular target: T2, GST-Bag101 BAG domain (78-190) (S. pombe); experiment: as above
[3] = molecular target: T3, GST-Bag102 BAG domain (122-206) (S. pombe); experiment: as above
[4] = molecular target: T4, GST-Bag102 ΔTM (31-206) (S. pombe); experiment: as above
[5] = molecular target: Flag-tagged San1 (S. pombe); experiment: co-IP; V5-tagged Ubr11 or Flag-tagged San1 precipitated with antibodies to V5 or Flag from S. pombe cells treated with Bortezomib; control antibody; blot for HA (Spc7)

binding [1] | binding [2] | binding [3] | binding [4] | binding [5] | Molecule
binds | binds | binds | binds |  | Hsp70 (S. pombe nuclear/cytosolic Hsp70 type chaperones)
 |  |  |  | no binding | Spc7-3HA (wild type) (protein, UniProt O59757 1-1364) MPTSPRRNSIATTDNVIGRNKSRKRPHSLGGPGALQELKEHTNPAKGILKSYSSFSVDPAFTGDEDFNDIHTQINNTVIGISSNVMAASKRLQMEDLQQLSRETSRKSLNRRVSFASHARVRWYPKDHQSDSEKSTSNHSTPERTFASDAKNHSPKGPTTTSFSRNETQSSPHSHSASIISDGSDMDIASPIRSTESDMVSEALNAGHPPPSLYPENDDLSIQNPTKALPEAEKALDVHDATREQVNDREETNMDLTIQFQEADSFLSHSESIKGLSSSEQGTVYSLKASHDPSNQTQLSSPNKSSSPTSIEISDFSKNNENHDQSENKEEEEDMMLTRPIEIPQHFSPIARPLTSQEAIVDMDITSNNINLSPVSHFSNGLDLQNLEEAPMNLTRPINANPHLTNHSPNDLTNGEEEMDTTSAFNIENSHLTLLSPIRPSSRSMEEQIMDLTQPISSTNAPTHLNEDDLNQFTSNISSSSKPRKDNNKTANSSKPIPDSEDFMDITRPFNILSPSKEALSEEQPMELTSTVFPCENSTSHLEVEEAAMDETVAFQIRGNNVELPSADKENAEREEIPSYSDKSENFNTTSFTNHERSPNGNNNLKFSKDPNSSSPSRHVVATPTDKLGTRKRRLRYSTSSFDQSTLRRNRLATIRNARKSISTLNDRELLPVNFFEKKVNSGLYKSVERSENYRLGATPLTAEKPFTTEKPLSSLPEEVSRQPTDDKGEQVSNADVDSGLSKTERLTIQQTNEIKHVPTNTTSSVKLPQQPSNEDEKERITTADYADSTSLERLESQEPNRNELVQVGSSNAGNTTSVGMNEHEKSPVKLSKGVSNVDTSLGASTINTNILNQDSGPNEEIPVGNEPEFDTMPTLPNVEPISLSDFLKMTGIEFLDNLTIAKRRETLLPNAEENKKCSIQELLESFYIQFPLLELYKFSCQQLQDYIAEGKDFVTKIEEETLKENPLLFYEYRKASSDMRVLMDSQFLMMKTFARLQAKGDWYEWREGLMQGIKHELNLNLTGMQRSLTHLMDVANVIHPYAQEIQERYNGSITTVQTLKKQKEFANQYDSTLLAQAQEKLEKLKVEVERRRRLLSEKEERRKELAIKIEQVTNSCSDLELRTNAEQDFYAKNQDFEFDEIKRYEEQLLNLKNELGWTIVSLTAGGIKLATNNTALSPYSAEVTVEILRQNFQVNVDIACKFPNESNACSSNVLEHVASSFSKWHSKVFSRNLRLLKKYLNDVSICWEQIVYLVQDFQRLWYHWPFLSVENDDKSIIINVELYLRSVSSKVKVVFGLPIDTIYQTTEVGKFYASTSVAVKQMYAESEGDSYVSEVLNTLSEVVHCTSTYALSSACLTVWNKYS

These are yes or no findings as the source states them, for the method shown. In cells and extracts the contact can be indirect. For some assays here: Binding calls can cover weak binding; strength is not graded here. For some assays here: Sequences can lack the tags named with a protein.
